Reference: publication PMC6107238, “Conformational plasticity of the intrinsically disordered protein ASR1 modulates its function as a drought stress-responsive gene” (PLoS ONE, 2018)
These are yes or no findings as the source states them, for the method shown. Where a sequence is shown, tags or fusion partners need not be part of it.

Assays:
[1] = target: Tomato ASR1 (Abscisic, Stress, Ripening protein 1), untagged recombinant protein (tomato) (UniProt Q08655); experiment: SEC-MALS; analytic Superdex 75 with static light scattering; buffer S75 with 10 uM Zn2+; both purified
[2] = target: Tomato ASR1 (Abscisic, Stress, Ripening protein 1), untagged recombinant protein (tomato) (UniProt Q08655); experiment: dynamic light scattering; 45 uM ASR1 (legend: 40 uM), buffer T, 25°C, with 5 and 10 uM Zn2+; both purified
[3] = target: Tomato ASR1 (Abscisic, Stress, Ripening protein 1), untagged recombinant protein (tomato) (UniProt Q08655); experiment: SEC-MALS; analytic Superdex 75 with 90° static light scattering (SLS) and refractive index; buffer S75 (20 mM sodium phosphate pH 7.5, 500 mM NaCl) without Zn2+; 3 mg/mL (SLS), 63 ug in 100 uL (SEC); both purified
[4] = target: Tomato ASR1 (Abscisic, Stress, Ripening protein 1), untagged recombinant protein (tomato) (UniProt Q08655); experiment: dynamic light scattering; 45 uM ASR1 (legend: 40 uM), buffer T, 25°C, without Zn2+; both purified

B1: Tomato ASR1 (Abscisic, Stress, Ripening protein 1), untagged recombinant protein (natural protein, UniProt Q08655 1-115, looked up)
chain: MEEEKHHHHHLFHHKDKAEEGPVDYEKEIKHHKHLEQIGKLGTVAAGAYALHEKHEAKKDPEHAHKHKIEEEIAAAAAVGAGGFAFHEHHEKKDAKKEEKKKLRGDTTISSKLLF
notes: ASR1 of tomato; 'peaks corresponding to the expected full-length protein were pooled'; 12.7 kDa by SLS; The cloning of ASR1 alone is not described; also called untagged ASR1; ASR1 recombinant protein
binding [1]: no binding (condition: with 10 uM Zn2+)
binding [2]: no binding (condition: with 5 and 10 uM Zn2+; 45 uM)
binding [3]: no binding (condition: without Zn2+; 3 mg/mL)
binding [4]: no binding (condition: without Zn2+; 45 uM)
